Results deposited as PubChem BioAssay AID743121 (NCATS, 2013)
Test: 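Knock-downs that sensitise breast cancer cells to camptothecin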 (primary screen). Cells: MDA-MB-231 cells, a human breast cancer line. Knock-down reagent: single siRNA against human genes, 20 nM siRNA (0.8 pmol per well). Timing: 120 h (drug added 48 h after transfection, read 72 h later). Challenge: camptothecin 20 nM (about EC30) for 72 h; vehicle 0.1% DMSO in parallel plates. Measurement: 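Cell viability by ATP luminescence (CellTiter-Glo) as % of non-targeting siRNA wells, and the log2 ratio of viability without drug over viability with camptothecin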. Scale: log2 vehicle/camptothecin viability: higher = stronger sensitisation to camptothecin; viability with camptothecin and viability without drug: higher = more viable cells. Hit rule: 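Active genes have an RSA gene-level p-value below 0.001, computed from the ratios of their separate siRNAs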.
The deposit covers about 26,000 reagents; shown is a random part of them. Over the whole deposit, 167 (0.63%) got an active call. 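Calls are per gene from RSA p-values that are not deposited; an individual active-marked siRNA can sensitise only weakly.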 The numbers tell different reagents against one gene apart.

no.	gene symbol	siRNA no.	log2 vehicle/camptothecin viability	viability with camptothecin (% of control)	viability without drug (% of control)	outcome
1	EXO1 (exonuclease 1)	1	-0.0369	86.4	84.2	inactive
2	EXO1 (exonuclease 1)	2	-0.558	55.8	37.9	inactive
3	EXO1 (exonuclease 1)	3	-0.399	99.1	75.1	inactive
4	SQSTM1 (sequestosome 1)	1	-0.172	89.8	79.7	inactive
5	SQSTM1 (sequestosome 1)	2	-0.0598	23.3	22.3	inactive
6	SQSTM1 (sequestosome 1)	3	-0.0163	66.1	65.4	inactive
7	SQSTM1 (sequestosome 1)	4	-0.135	72.1	65.7	inactive
8	CHRND (cholinergic receptor nicotinic delta subunit)	1	-0.481	72.5	51.9	inactive
9	CHRND (cholinergic receptor nicotinic delta subunit)	2	0.038	22.4	23	inactive
10	CHRND (cholinergic receptor nicotinic delta subunit)	3	-0.378	63.2	48.6	inactive
11	CHRND (cholinergic receptor nicotinic delta subunit)	4	-0.271	54.1	44.8	inactive
12	ZIC2 (Zic family zinc finger 2)	1	0.282	55	66.9	inactive
13	ZIC2 (Zic family zinc finger 2)	2	0.246	63.4	75.1	inactive
14	ZIC2 (Zic family zinc finger 2)	3	0.0187	107	109	inactive
15	ZIC2 (Zic family zinc finger 2)	4	-0.49	76.8	54.7	inactive
16	FES (FES proto-oncogene, tyrosine kinase)	1	-0.145	49.4	44.7	inactive
17	FES (FES proto-oncogene, tyrosine kinase)	2	-0.348	78	61.3	inactive
18	FES (FES proto-oncogene, tyrosine kinase)	3	-0.166	65.9	58.8	inactive
19	FES (FES proto-oncogene, tyrosine kinase)	4	0.275	25.6	31	inactive
20	BIK (BCL2 interacting killer)	1	-0.236	85	72.1	inactive
21	BIK (BCL2 interacting killer)	2	0.352	24.3	31	inactive
22	BIK (BCL2 interacting killer)	3	-0.489	89.5	63.8	inactive
23	BIK (BCL2 interacting killer)	4	-0.323	65.2	52.1	inactive
24	PAQR3 (progestin and adipoQ receptor family member 3)	1	-0.286	102	83.8	inactive
25	PAQR3 (progestin and adipoQ receptor family member 3)	2	-0.125	70.1	64.3	inactive
26	PAQR3 (progestin and adipoQ receptor family member 3)	3	-0.0215	108	107	inactive
27	PAQR3 (progestin and adipoQ receptor family member 3)	4	-0.304	42.8	34.7	inactive
28	GRB2 (growth factor receptor bound protein 2)	1	0.342	23.8	30.2	inactive
29	GRB2 (growth factor receptor bound protein 2)	2	-0.323	128	102	inactive
30	GRB2 (growth factor receptor bound protein 2)	3	-0.0794	112	106	inactive
31	GRB2 (growth factor receptor bound protein 2)	4	0.16	68.1	76.1	inactive
32	MAP3K15 (mitogen-activated protein kinase kinase kinase 15)	1	-0.162	61.3	54.8	inactive
33	MAP3K15 (mitogen-activated protein kinase kinase kinase 15)	2	-0.276	121	100	inactive
34	MAP3K15 (mitogen-activated protein kinase kinase kinase 15)	3	-0.0332	82.7	80.8	inactive
35	MAP3K15 (mitogen-activated protein kinase kinase kinase 15)	4	-0.106	104	96.3	inactive
36	MAP3K15 (mitogen-activated protein kinase kinase kinase 15)	5	-0.357	82.8	64.6	inactive
37	MAP3K15 (mitogen-activated protein kinase kinase kinase 15)	6	-0.412	45.3	34.1	inactive
38	KAT6B (lysine acetyltransferase 6B)	1	-0.091	107	100	inactive
39	KAT6B (lysine acetyltransferase 6B)	2	0.063	56	58.5	inactive
40	KAT6B (lysine acetyltransferase 6B)	3	0.0206	50.4	51.1	inactive
41	WNT4 (Wnt family member 4)	1	-0.216	103	88.7	inactive
42	WNT4 (Wnt family member 4)	2	-0.245	51.9	43.8	inactive
43	WNT4 (Wnt family member 4)	3	0.119	15.8	17.1	inactive
44	WNT4 (Wnt family member 4)	4	-0.185	96.1	84.5	inactive
45	KCTD20 (potassium channel tetramerization domain containing 20)	1	-0.0382	65.8	64.1	inactive
46	KCTD20 (potassium channel tetramerization domain containing 20)	2	-0.477	40.8	29.3	inactive
47	KCTD20 (potassium channel tetramerization domain containing 20)	3	0.328	66.1	83	inactive
48	KCTD20 (potassium channel tetramerization domain containing 20)	4	0.00518	44.6	44.7	inactive
49	SDR16C5 (short chain dehydrogenase/reductase family 16C member 5)	1	-0.358	92.7	72.3	inactive
50	SDR16C5 (short chain dehydrogenase/reductase family 16C member 5)	2	0.0674	91.9	96.3	inactive
51	SDR16C5 (short chain dehydrogenase/reductase family 16C member 5)	3	-0.465	121	87.9	inactive
52	SDR16C5 (short chain dehydrogenase/reductase family 16C member 5)	4	-0.569	81.6	55	inactive
53	ABCC2 (ATP binding cassette subfamily C member 2)	1	-0.0938	18.5	17.3	inactive
54	ABCC2 (ATP binding cassette subfamily C member 2)	2	0.2	32.1	36.9	inactive
55	ABCC2 (ATP binding cassette subfamily C member 2)	3	-0.0996	63.4	59.2	inactive
56	ABCC2 (ATP binding cassette subfamily C member 2)	4	0.14	104	114	inactive
57	TUBGCP3 (tubulin gamma complex component 3)	1	-0.371	91.3	70.7	inactive
58	TUBGCP3 (tubulin gamma complex component 3)	2	-0.686	88	54.7	inactive
59	TUBGCP3 (tubulin gamma complex component 3)	3	-0.487	88.1	62.9	inactive
60	TUBGCP3 (tubulin gamma complex component 3)	4	-0.0882	99.1	93.2	inactive
61	PRKG2 (protein kinase cGMP-dependent 2)	1	0.36	29.9	38.3	inactive
62	PRKG2 (protein kinase cGMP-dependent 2)	2	-0.278	94.1	77.6	inactive
63	PRKG2 (protein kinase cGMP-dependent 2)	3	-0.0318	78.2	76.5	inactive
64	PRKG2 (protein kinase cGMP-dependent 2)	4	-0.216	127	109	inactive
65	ATP2A2	1	-0.366	60.6	47	inactive
66	ATP2A2	2	-0.197	94.4	82.4	inactive
67	ATP2A2	3	0.295	35.2	43.2	inactive
68	ATP2A2	4	-0.357	118	92.5	inactive
69	RXFP2 (relaxin family peptide receptor 2)	1	-0.16	97.5	87.3	inactive
70	RXFP2 (relaxin family peptide receptor 2)	2	-0.416	72.7	54.5	inactive
71	RXFP2 (relaxin family peptide receptor 2)	3	-0.285	79.7	65.4	inactive
72	RXFP2 (relaxin family peptide receptor 2)	4	-0.29	85.2	69.7	inactive
73	ALAD (aminolevulinate dehydratase)	1	-0.445	92.9	68.2	inactive
74	ALAD (aminolevulinate dehydratase)	2	-0.114	86.8	80.2	inactive
75	ALAD (aminolevulinate dehydratase)	3	0.112	85.6	92.6	inactive
76	ALAD (aminolevulinate dehydratase)	4	-0.257	101	84.5	inactive
77	RAB3D (RAB3D, member RAS oncogene family)	1	-0.437	48.6	35.9	inactive
78	RAB3D (RAB3D, member RAS oncogene family)	2	-0.0777	56.1	53.1	inactive
79	RAB3D (RAB3D, member RAS oncogene family)	3	-0.371	73.5	56.8	inactive
80	RAB3D (RAB3D, member RAS oncogene family)	4	0.47	17.1	23.7	inactive
81	TMBIM6 (transmembrane BAX inhibitor motif containing 6)	1	0.0403	89.5	92.1	inactive
82	TMBIM6 (transmembrane BAX inhibitor motif containing 6)	2	-0.287	124	102	inactive
83	TMBIM6 (transmembrane BAX inhibitor motif containing 6)	3	-0.142	108	97.9	inactive
84	TMBIM6 (transmembrane BAX inhibitor motif containing 6)	4	0.0812	46.8	49.5	inactive
85	PRSS16 (serine protease 16)	1	-0.394	115	87.6	inactive
86	PRSS16 (serine protease 16)	2	-0.169	105	93.5	inactive
87	PRSS16 (serine protease 16)	3	-0.0236	46.5	45.8	inactive
88	PRSS16 (serine protease 16)	4	-0.117	111	102	inactive

Entries listed so far whose target name starts with R or r (8):
gene symbol	siRNA no.	log2 vehicle/camptothecin viability	viability with camptothecin (% of control)	viability without drug (% of control)	outcome
RXFP2 (relaxin family peptide receptor 2)	1	-0.16	97.5	87.3	inactive
RXFP2 (relaxin family peptide receptor 2)	2	-0.416	72.7	54.5	inactive
RXFP2 (relaxin family peptide receptor 2)	3	-0.285	79.7	65.4	inactive
RXFP2 (relaxin family peptide receptor 2)	4	-0.29	85.2	69.7	inactive
RAB3D (RAB3D, member RAS oncogene family)	1	-0.437	48.6	35.9	inactive
RAB3D (RAB3D, member RAS oncogene family)	2	-0.0777	56.1	53.1	inactive
RAB3D (RAB3D, member RAS oncogene family)	3	-0.371	73.5	56.8	inactive
RAB3D (RAB3D, member RAS oncogene family)	4	0.47	17.1	23.7	inactive
